From patent US8993717B2, “Gadd45beta targeting agents” (Imperial Innovations Limited, priority 2009, dated 2015)
For some assays here: Part of at least one peptide drawing is inferred or uncertain, most often the ends. For some assays here: For at least one compound, name, drawing or mass did not settle the structure. Square brackets hold non-standard residues; d marks the D form. Peptide text beside a SMILES is read from it. * marks the point of attachment. Cbz = O=C(OCc1ccccc1)*

Tests used:
Gadd45β/MKK7 interaction = biological target: T1, Gadd45β/MKK7 interaction (Homo sapiens, UniProt O14733); test: ELISA competition assay of biotin-hGadd45β binding to coated GST-MKK7; settings: Table VI; compounds 0.01-100 nM
T1 construct: The GST-fused full-length kinase was coated for 16 h at 4° C., at a concentration of 42 nM; made in house
T1 sequence (O14733 1-419): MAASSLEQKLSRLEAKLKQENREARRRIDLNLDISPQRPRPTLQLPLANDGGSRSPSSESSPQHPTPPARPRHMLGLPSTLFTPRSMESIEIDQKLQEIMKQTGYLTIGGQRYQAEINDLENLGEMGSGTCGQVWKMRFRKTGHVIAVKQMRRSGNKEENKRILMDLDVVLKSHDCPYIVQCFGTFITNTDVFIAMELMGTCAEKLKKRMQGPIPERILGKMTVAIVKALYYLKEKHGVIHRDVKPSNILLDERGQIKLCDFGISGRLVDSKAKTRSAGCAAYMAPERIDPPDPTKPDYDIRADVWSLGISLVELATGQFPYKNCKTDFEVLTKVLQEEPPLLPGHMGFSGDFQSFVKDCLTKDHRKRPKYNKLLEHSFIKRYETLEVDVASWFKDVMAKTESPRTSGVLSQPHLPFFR
Experimental: To evaluate the inhibitory properties of peptides, ELISA-based assays were performed. In these assays, a fusion protein of glutathione S-transferase (GST) and mitogen-activated protein kinase kinase 7 (MKK7) was coated onto wells of a 96-well plate, while biotinylated-hGadd45β was used in solution. hGadd45β was biotinylated using an EZ Link NHS-LC-biotin kit (Pierce, Rockford, Ill.), according to Tornatore et al. (Tornatore L., et al. (2008). J Mol Biol; 378:97-111).
Firstly, the association between Gadd45β and MKK7 was investigated by ELISA assays as also reported in Tornatore et al. (Tornatore L., et al. (2008). J Mol Biol; 378:97-111). […] The absorbance at 490 nm was measured in all wells and the values were averaged after subtracting the corresponding blanks. Bound protein was then detected as described above. The molar concentration of biotinylated-hGadd45β at which the half-maximal ELISA signal is detected corresponds to the dissociation constant (KD) (Friguet B, Chaffotte A F, Djavadi-Ohaniance L, Goldberg M E. J Immunol Methods. 1985 Mar. 18; 77 (2):305-19). […] The binding of biotinylated hGadd45β to GST-MKK7 was analyzed in the presence of increasing amounts of competitor peptide (concentrations ranging from 0.01 nM to 100 nM), and the values obtained with the competitor were expressed as the percentage of the binding detected in the absence of competitor. […]

[1] = tested on: IKK/NF-κB, ERK and p38 pathways; test: Activation of IKK/NF-κB, ERK and p38 pathways in multiple myeloma cells; assay type: cell-based, human; settings: data not shown

| Compound | IC50 (Gadd45β/MKK7 interaction) [nM] | effects on the IKK/NF-κB, ERK and p38 pathways [1] |
| --- | --- | --- |
| CC(=O)N[C@H](Cc1ccc(O)cc1)C(=O)NCCCCCC(=O)N[C@H](Cc1ccccc1)C(N)=O [Compound A6, Ac-Y-eCaprioic-F-NH2] | > 100 | – |
| N=C(N)NCCC[C@@H](NC(=O)[C@@H](CCC(=O)O)NC(=O)[C@@H](Cc1ccc(O)cc1)NC(=O)OCc1ccccc1)C(=O)N[C@H](Cc1ccccc1)C(N)=O [Compound 9, Z-D-Tyr-D-Glu-D-Arg-D-Phe-NH2] (Cbz-[dY][dE][dR][dF]-NH2) | – | no effects were observed |
